According to PMC11643483, “Chip-Scale Aptamer Sandwich Assay Using Optical Waveguide-Assisted Surface-Enhanced Raman Spectroscopy”:

Molecular target: cardiac troponin I (cTnI) (UniProt P19429)
Experiment: SERS aptamer sandwich assay on waveguide
Conditions: 1 ng/mL cTnI stock (25 uL mixed with 50 uL reporter NPs), sandwich with immobilized N1, no cTnI-free control described; 5'-thiol-spacer 18; printed strand starts with TTTTT; aptamer-AuNPs resuspended in PBS; cTnI incubated 30 min with reporter NPs, then 1 h on waveguide, rinsed with buffer; pH and temperature not stated; commercial protein; label: 36 nm AuNP with MGITC Raman reporter; single-stranded DNA

Does “TTTTTCGCATGCCAAACGTTGCCTCATAGTTCCCTCCCCGTGTCC [secondary (reporter) aptamer]” bind?
Result: binds

The exact form of at least one protein or probe is not confirmed.
